Measured values reported in patent publication US5260275A, “Hypoglycemics” (Amylin Pharmaceuticals, Inc., priority 1990, dated 1993).
At least one peptide structure holds a part that was inferred or is arguable (an end, a ring closure or a residue). Some compounds share one wording; it may come from a single statement. Residues, ends and D or L forms follow the SMILES beside them.

Test system: isolated rat soleus muscle
Test: Glycogen synthesis in isolated rat soleus muscle strips (14C-glucose incorporation into glycogen)
Format: cell-based
Conditions: for Glycogen synthesis, mean value (amylin alone) / Rltv Insulin Resist (amylin alone): no antagonist, insulin 100 KU/ml
[1] = natural amylin 0.4 nmol/L, basal insulin 10 isU/ml
[2] = natural amylin 0.4 nmol/L, stimulatory insulin 100 μU/ml, Experiment #1
[3] = natural amylin 2.0 nmol/L, basal insulin 10 isU/ml
[4] = natural amylin 2.0 nmol/L, stimulatory insulin 100 μU/ml, Experiment #2
[5] = Table 4: amylin 0.2 nmol/ml, Experiment #1
[6] = Table 4: amylin 2.0 nmol/ml, Experiment #2

## CC[C@H](C)[C@H](NC(=O)[C@H](C)NC(=O)CNC(=O)[C@H](Cc1ccccc1)NC(=O)[C@H](CC(N)=O)NC(=O)[C@H](CC(N)=O)NC(=O)[C@H](CO)NC(=O)[C@H](CO)NC(=O)[C@H](Cc1c[nH]cn1)NC(=O)[C@@H](NC(=O)[C@H](CC(C)C)NC(=O)[C@H](Cc1ccccc1)NC(=O)[C@H](CC(N)=O)NC(=O)[C@H](C)NC(=O)[C@H](CC(C)C)NC(=O)[C@H](CCCNC(=N)N)NC(=O)[C@H](CCC(N)=O)NC(=O)[C@@H](NC(=O)[C@H](C)NC(=O)[C@@H]1CSSC[C@H](NC(=O)[C@@H](N)CCCCN)C(=O)N[C@@H](CC(N)=O)C(=O)N[C@@H]([C@@H](C)O)C(=O)N[C@@H](C)C(=O)N[C@@H]([C@@H](C)O)C(=O)N1)[C@@H](C)O)C(C)C)C(=O)N[C@@H](CC(C)C)C(=O)N[C@@H](CO)C(=O)N[C@@H](CO)C(=O)N[C@H](C(=O)N[C@@H](CC(N)=O)C(=O)N[C@H](C(=O)NCC(=O)N[C@@H](CO)C(=O)N[C@@H](CC(N)=O)C(=O)N[C@H](C(=O)N[C@@H](Cc1ccc(O)cc1)C(N)=O)[C@@H](C)O)C(C)C)[C@@H](C)O [Amylin, Fraction 2]
[1]
  Glycogen synthesis, mean value: 1.12 µmol/h/g
  Relative insulin resistance (percentage by which glycogen synthesis is reduced from control): 22%
[2]
  Glycogen synthesis, mean value: 2.00 µmol/h/g
  Relative insulin resistance: 29%
[3]
  Glycogen synthesis, mean value: 0.82 µmol/h/g
  Relative insulin resistance (percentage by which glycogen synthesis is reduced from control): 43%
[4]
  Glycogen synthesis, mean value: 1.97 µmol/h/g
  Relative insulin resistance: 47%

## CC[C@H](C)[C@H](NC(=O)[C@H](C)NC(=O)CNC(=O)[C@H](Cc1ccccc1)NC(=O)[C@H](CC(N)=O)NC(=O)[C@H](CC(N)=O)NC(=O)[C@H](CO)NC(=O)[C@H](CO)NC(=O)[C@H](Cc1c[nH]cn1)NC(=O)[C@@H](NC(=O)[C@H](CC(C)C)NC(=O)[C@H](Cc1ccccc1)NC(=O)[C@H](CC(N)=O)NC(=O)[C@H](C)NC(=O)[C@H](CC(C)C)NC(=O)[C@H](CCCNC(=N)N)NC(=O)[C@H](CCC(N)=O)NC(=O)[C@@H](NC(=O)[C@H](C)NC(=O)[C@@H]1CSSC[C@H](NC(=O)[C@@H](N)CCCCN)C(=O)N[C@@H](CC(N)=O)C(=O)N[C@@H]([C@@H](C)O)C(=O)N[C@@H](C)C(=O)N[C@@H]([C@@H](C)O)C(=O)N1)[C@@H](C)O)C(C)C)C(=O)N[C@@H](CC(C)C)C(=O)N[C@@H](CO)C(=O)N[C@@H](CO)C(=O)N[C@H](C(=O)N[C@@H](CC(N)=O)C(=O)N[C@H](C(=O)NCC(=O)N[C@@H](CO)C(=O)N[C@@H](CC(N)=O)C(=O)N[C@H](C(=O)N[C@@H](Cc1ccc(O)cc1)C(N)=O)[C@@H](C)O)C(C)C)[C@@H](C)O [natural whole amylin]
[5]
  Glycogen synthesis, mean value (amylin alone): 2.00 µmol/h/g
  Rltv Insulin Resist (amylin alone): 29%
[6]
  Glycogen synthesis, mean value (amylin alone): 1.97 µmol/h/g
  Rltv Insulin Resist (amylin alone): 47%
Glycogen synthesis inhibition in rat muscle
  Potency of natural versus chemically synthesized amylin (factor 120/2): ≥ 60 fold
Isolated rat muscle, basal and insulin-stimulated
  Amylin concentration producing a significant reduction in glycogen synthesis: ≤ 0.4 nmol/L
[1]
  Glycogen synthesis, mean value: 1.12 µmol/h/g
  Relative insulin resistance (percentage by which glycogen synthesis is reduced from control): 22%
[3]
  Glycogen synthesis, mean value: 0.72 µmol/h/g
  Relative insulin resistance (percentage by which glycogen synthesis is reduced from control): 50%
Natural amylin 2.0 nmol/L, basal insulin 10 isU/ml, listed as extracted amylin
  Relative insulin resistance (percentage by which glycogen synthesis is reduced from control): 50%
[4]
  Relative insulin resistance: 47%

## CC[C@H](C)[C@H](NC(=O)[C@H](C)NC(=O)CNC(=O)[C@H](Cc1ccccc1)NC(=O)[C@H](CC(N)=O)NC(=O)[C@H](CC(N)=O)NC(=O)[C@H](CO)NC(=O)[C@H](CO)NC(=O)[C@H](Cc1c[nH]cn1)NC(=O)[C@@H](NC(=O)[C@H](CC(C)C)NC(=O)[C@H](Cc1ccccc1)NC(=O)[C@H](CC(N)=O)NC(=O)[C@H](C)NC(=O)[C@H](CC(C)C)NC(=O)[C@H](CCCNC(=N)N)NC(=O)[C@H](CCC(N)=O)NC(=O)[C@@H](NC(=O)[C@H](C)N)[C@@H](C)O)C(C)C)C(=O)N[C@@H](CC(C)C)C(=O)N[C@@H](CO)C(=O)N[C@@H](CO)C(=O)N[C@H](C(=O)N[C@@H](CC(N)=O)C(=O)N[C@H](C(=O)NCC(=O)N[C@@H](CO)C(=O)N[C@@H](CC(N)=O)C(=O)N[C@H](C(=O)N[C@@H](Cc1ccc(O)cc1)C(=O)O)[C@@H](C)O)C(C)C)[C@@H](C)O [subpeptide [5]] (H-ATQRLANFLVHSSNNFGAILSSTNVGSNTY-OH)
Example 2, synthetic subpeptides, data not shown
  Activity in inhibiting basal and insulin-stimulated glycogen synthesis (in words): significant activity was present
